Record: PubChem BioAssay AID1508588 (Peter MacCallum Cancer Centre, 2020)

- Test: 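Genome-wide search for knock-downs that heighten vemurafenib action in melanoma cells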 (primary screen)
- System: human WM266.4 melanoma cells (BRAF V600 mutant)
- Reagent: siRNA pool against human genes, 40 nM
- Duration: 96 h from transfection to read-out
- Conditions: vemurafenib 300 nM (about IC25), added 48 h after transfection, for 48 h; comparison arm got DMSO vehicle only
- Detection: 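Ratios to non-targeting siRNA for cell gain, counted as DAPI nuclei after minus before drug and averaged over two replicates, and for absorbance-read medium lactate per cell; both binned into fold-change classes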
- Reading the numbers: cell gain with vemurafenib: higher = more cell gain than with non-targeting siRNA; lactate per cell with vemurafenib: higher = more lactate made per cell
- Active means: 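Enhancement is called by pairing each knock-down's vehicle-arm and drug-arm fold-change classes for viability or glycolysis; which class combinations qualify is not given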
- Calls: active = enhances vemurafenib effect; inactive = no enhancement seen
The deposit covers about 18,000 reagents; shown is a part drawn at random. 790 of them (4.4%) count as active. 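Calls rest on a combination of fold-change classes in drug and vehicle arms, not all shown here.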 Entries without a mark were called inactive. Reagent sequences are not shown.

For PTTG1 (GeneID 9232) [SID134310385], what was measured?
cell gain with vemurafenib: 0.51; lactate per cell with vemurafenib: 0.88

Which result is listed for RHPN1 (GeneID 114822) [SID152152114]?
cell gain with vemurafenib: 0.7; lactate per cell with vemurafenib: 1.34

What did the screen give for CCDC174 (GeneID 51244) [SID152150434]?
cell gain with vemurafenib: 0.76; lactate per cell with vemurafenib: 0.78

How did the screen score TWIST1 (GeneID 7291) [SID152154759]?
cell gain with vemurafenib: 0.63; lactate per cell with vemurafenib: 1.47

For OMA1 (GeneID 115209) [SID135621614], what was measured?
cell gain with vemurafenib: 0.16; lactate per cell with vemurafenib: 0.79

What did the screen give for PDAP1 (GeneID 11333) [SID135623373]?
cell gain with vemurafenib: 0.4; lactate per cell with vemurafenib: 2.26

Which result is listed for NTHL1 (GeneID 4913) [SID152156634]?
cell gain with vemurafenib: 0.36; lactate per cell with vemurafenib: 2.34

With CDH8 (GeneID 1006) [SID134317745], what was measured?
cell gain with vemurafenib: 0.65; lactate per cell with vemurafenib: 0.84

What did the screen give for SMAD2 (GeneID 4087) [SID152156776]?
cell gain with vemurafenib: 0.86; lactate per cell with vemurafenib: 0.84

How did the screen score OR2D3 (GeneID 120775) [SID152146928]?
cell gain with vemurafenib: 1.06; lactate per cell with vemurafenib: 0.53

For DTX1 (GeneID 1840) [SID134311849], how do the results read?
cell gain with vemurafenib: 0.92; lactate per cell with vemurafenib: 0.97

Which result is listed for DPYSL3 (GeneID 1809) [SID134314529]?
cell gain with vemurafenib: 0.99; lactate per cell with vemurafenib: 0.78

What did the screen give for FGD5 (GeneID 152273) [SID152156075]?
cell gain with vemurafenib: 0.87; lactate per cell with vemurafenib: 0.9

For ZNF609 (GeneID 23060) [SID152147851], what was measured?
cell gain with vemurafenib: 0.38; lactate per cell with vemurafenib: 0.8

With CTRL (GeneID 1506) [SID134311261], what was measured?
cell gain with vemurafenib: 0.55; lactate per cell with vemurafenib: 1.12

What did the screen give for MCAM (GeneID 4162) [SID152149023]?
cell gain with vemurafenib: 0.86; lactate per cell with vemurafenib: 0.74

Which result is listed for RAP2A (GeneID 5911) [SID152151827]?
cell gain with vemurafenib: 0.61; lactate per cell with vemurafenib: 1.35

What did the screen give for MZF1 (GeneID 7593) [SID135621220]?
cell gain with vemurafenib: 0.81; lactate per cell with vemurafenib: 0.66

Which result is listed for CNOT6L (GeneID 246175) [SID152146838]?
cell gain with vemurafenib: 0.57; lactate per cell with vemurafenib: 0.94

For GCNT4 (GeneID 51301) [SID134324772], what does the deposit list?
cell gain with vemurafenib: 0.48; lactate per cell with vemurafenib: 1

What did the screen give for BEND3 (GeneID 57673) [SID152153236]?
cell gain with vemurafenib: 0.8; lactate per cell with vemurafenib: 0.91

What is on record for ZBED1 (GeneID 9189) [SID135622368]?
cell gain with vemurafenib: 0.82; lactate per cell with vemurafenib: 0.86

What did the screen give for BLM (GeneID 641) [SID152151551]?
cell gain with vemurafenib: 0.73; lactate per cell with vemurafenib: 1.5

What did the screen give for SYT12 (GeneID 91683) [SID135623532]?
cell gain with vemurafenib: 0.74; lactate per cell with vemurafenib: 1.15

With MEP1A (GeneID 4224) [SID152153309], what does the deposit list?
cell gain with vemurafenib: 0.8; lactate per cell with vemurafenib: 0.24

With BET1L (GeneID 51272) [SID135623615], what was measured?
cell gain with vemurafenib: 0.04; lactate per cell with vemurafenib: 1.46

With TAGLN2 (GeneID 8407) [SID135622131], what does the deposit list?
cell gain with vemurafenib: 0.59; lactate per cell with vemurafenib: 0.52

For PRKRA (GeneID 8575) [SID152154200], what does the deposit list?
cell gain with vemurafenib: 0.64; lactate per cell with vemurafenib: 1.12

Which result is listed for NCKAP5 (GeneID 344148) [SID135624339]?
cell gain with vemurafenib: 0.22; lactate per cell with vemurafenib: 0.79

For TNRC6A (GeneID 27327) [SID152153345], what was measured?
cell gain with vemurafenib: 0.43; lactate per cell with vemurafenib: 1.36

For HIF1A (GeneID 3091) [SID135620773], what was measured?
cell gain with vemurafenib: 0.93; lactate per cell with vemurafenib: 0.5

With ZNF208 (GeneID 7757) [SID152151933], what was measured?
cell gain with vemurafenib: 0.78; lactate per cell with vemurafenib: 1.25

With MAP2K3 (GeneID 5606) [SID152148115], how do the results read?
cell gain with vemurafenib: -0.12 (active); lactate per cell with vemurafenib: -0.04

How did the screen score ICMT (GeneID 23463) [SID152151028]?
cell gain with vemurafenib: 0.23; lactate per cell with vemurafenib: 0.76

What is on record for CLEC12A (GeneID 160364) [SID152149320]?
cell gain with vemurafenib: 0.78; lactate per cell with vemurafenib: 0.86

How did the screen score PEDS1-UBE2V1 (GeneID 387522) [SID135625095]?
cell gain with vemurafenib: 0.67; lactate per cell with vemurafenib: 1.3

With NUMA1 (GeneID 4926) [SID152152873], what was measured?
cell gain with vemurafenib: 0.04; lactate per cell with vemurafenib: 1.77

With ADAMTSL3 (GeneID 57188) [SID152152927], what was measured?
cell gain with vemurafenib: 0.16; lactate per cell with vemurafenib: 2.38

Which result is listed for UBQLN1 (GeneID 29979) [SID134317190]?
cell gain with vemurafenib: 0.78; lactate per cell with vemurafenib: 1.27

What did the screen give for OR6Q1 (GeneID 219952) [SID152150076]?
cell gain with vemurafenib: 0.54; lactate per cell with vemurafenib: 0.8

Only “cell gain with vemurafenib”, for 3 of the entries above:
ADAMTSL3 (GeneID 57188) [SID152152927]: 0.16
UBQLN1 (GeneID 29979) [SID134317190]: 0.78
OR6Q1 (GeneID 219952) [SID152150076]: 0.54
